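Whole-parasite assay of Trypanosoma brucei over 72 hours; the read-out is not stated. Concentration: 30 µM. The record gives no direction; compounds that gave an IC50 in retests scored well above the rest, so higher reads as stronger inhibition. Values scatter widely below zero; nearly all retest evidence comes from the higher of the two concentrations used. About 64,000 compounds were tested under these conditions; 1.5% (about 940) showed 50% or more at least once.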

Each number is a percent effect as filed.
How 0% and 100% were set is not recorded. Most values in the screen are low, and negative values occur.
Compounds were drawn at random from those tested, without regard to their results.

| # | Compound | effect |
|---|---|---|
| 1 | `Cn1ccc(CN2CCC(NC(=O)NC3CCCCC3)CC2)cc1=O` | 19.92 |
| 2 | `CC1CCN(C)c2ccccc2N1C(=O)c1ccn(C)c(=O)c1` (configuration not stated) | -24.42 |
| 3 | `OC(CNCCn1cccn1)COc1ccc(Br)cc1` (configuration not stated) | 14.25 |
| 4 | `Cc1ccc(CNCC2Cn3nnc(-c4cccc(F)c4)c3CO2)o1.O=C(O)C(F)(F)F` (configuration not stated) | 4.463 |
| 5 | `CC(C)c1cc(NCC2(CO)CCC2)ncn1` | -38.43 |
| 6 | `CC(C)NC(=O)CN1CCC(c2cccc(F)c2)C1` (configuration not stated) | -14.26 |
| 7 | `Cc1ccc(CC(=O)N2CCCC(c3nc(C)cs3)C2)cn1` (configuration not stated) | 11.1 |
| 8 | `COc1ccc(C(=O)N2CCCS2(=O)=O)cc1` | -9.577 |
| 9 | `O=C(C1=CCCC1)N1CC[C@]2(C[C@H](OCc3cccnc3)CO2)C1.O=C(O)C(F)(F)F` | 2.335 |
| 10 | `N#Cc1cccnc1N1CCC(OCCc2ccccc2)CC1` | 5.963 |
| 11 | `COCCN1CC2(CCCN(C(=O)CCCc3cccs3)C2)CCC1=O` (configuration not stated) | -32.8 |
| 12 | `COc1cccc(OC)c1-c1ccnc2cc(CC(=O)N(C)C)nn12` | -13 |
| 13 | `CC(C)(C)c1ccc(=O)n(CN2CCCC(C(F)(F)F)C2)n1` (configuration not stated) | -31.56 |
| 14 | `[H][C@@]12CN(C(=O)NCC)C[C@]1([H])OCC(=O)N2CC1CCCCC1` | -31.61 |
| 15 | `O=C(O)C(F)(F)F.[H][C@@]12CO[C@@H](CNC(=O)c3nccn3C)[C@]1([H])CCN(CCC)C2` | -7.902 |
| 16 | `CC(C)(C)NC(=O)c1ccn(COc2c(Cl)cccc2Cl)n1` | -51.89 |
| 17 | `COCCN(Cc1ccccc1)Cc1csc(-c2ncccn2)n1` | -33.19 |
| 18 | `O=C(O)C(F)(F)F.O=C(O)C(F)(F)F.[H][C@@]12CN(Cc3csc(C)n3)C[C@]1([H])CN(C(=O)Cc1ccccn1)C2` | 0.986 |
| 19 | `O=C(O)C(F)(F)F.O=C(c1cccc(F)c1)N1CCC2(CC1)CC(N1CCOCC1)C2` | -35.6 |
| 20 | `CC(C)[C@H](N)CC(=O)Nc1nc(-c2cnc(N3CCOCC3)nc2)cs1.Cl` | 9.741 |
| 21 | `CC(=O)Nc1ccc(Oc2cc(C)nc(C3CCNCC3)c2)cc1.Cl` | 0.5571 |
| 22 | `Cc1nn(CCC(=O)NC2CCCOC2)c(C)c1C` (configuration not stated) | 0.5093 |
| 23 | `CO[C@H]1COCCN(C(=O)c2ccc(C#N)cc2)C1` | -9.424 |
| 24 | `CC(C#N)CNC(=O)Nc1ccc(-c2ccc[nH]2)cc1` (configuration not stated) | 6.521 |
| 25 | `CCS(=O)(=O)N1CCC2(CC1)COC(COc1cccnc1)C2.O=C(O)C(F)(F)F` (configuration not stated) | 1.349 |
| 26 | `Cc1ccc(CN(CCCn2ccnc2)Cc2[nH]cnc2C)s1.O=C(O)CC(O)(CC(=O)O)C(=O)O` | 19.63 |
| 27 | `CNC(=O)CCCNCc1c(C)nn(CC(C)C)c1N(C)C` | -44.82 |
| 28 | `CC(OCC(F)(F)F)C(=O)N1CCN(S(C)(=O)=O)CC1` (configuration not stated) | -62.42 |
| 29 | `CCCn1ccnc1-c1cccc(NC(=O)[C@H]2CCC(=O)N2)c1` | -83.23 |
| 30 | `CCc1nccn1-c1cccc(C2CCCN2S(=O)(=O)N(C)C)n1` (configuration not stated) | 0.8879 |
| 31 | `CCOCC(=O)NC1(c2cccc(Br)c2)CC1` | -15.76 |
| 32 | `CC(c1nc(C(C)(C)C)no1)N1CCN(c2ccc(C#N)cn2)CC1` (configuration not stated) | 17.18 |
| 33 | `[H][C@@]12CN(Cc3ccccn3)C(=O)N1CCN(C1CCC1)C2` | 4.564 |
| 34 | `Cc1cnc(CN2CCCC(c3nc4ccccc4n3C(C)C)C2)o1` (configuration not stated) | -3.848 |
| 35 | `[H][C@@]12CN(Cc3cccnc3)C[C@]1([H])C(=O)N(C)C21CCN(C(C)=O)CC1` | -13.42 |
| 36 | `O=C(O)C(F)(F)F.O=C(O)C(F)(F)F.[H][C@@]12C[C@@H](OCc3cccnc3)CN1CCN(C(=O)c1ccc(F)cc1)C2` | -157 |
| 37 | `CC(C)(C)OC(=O)N1CCCc2ccc(NCc3ncc[nH]3)cc21` | 32.04 |
| 38 | `COc1cccc(N2CC3(CCN(Cc4nccn4C)C3)CC2=O)c1.O=C(O)C(F)(F)F` (configuration not stated) | -26.47 |
| 39 | `O=C(CCOc1ccccc1)N1CCC(Nc2cccnn2)CC1` | 24.41 |
| 40 | `O=C(O)C(F)(F)F.[H][C@@]12COC[C@]1(CNC(=O)COC)CN(Cc1ccc3c(c1)OCO3)C2` | 5.113 |
| 41 | `O=C1OCCN1C1CCN(Cc2cc3n(n2)CCCNC3)CC1` | -25.12 |
| 42 | `NC(=O)CN(Cc1ccc(Br)cc1)C(=O)c1ccccn1` | 10.61 |
| 43 | `CC(c1ccncn1)N(C)S(=O)(=O)NCc1ccccc1` (configuration not stated) | 6.282 |
| 44 | `CNC(=O)Cc1noc(-c2cc3c(s2)CCCCCC3)n1` | -9.643 |
| 45 | `Cc1cc(CN2CCN(Cc3cc(C#N)ccc3F)CC2)no1` | -12.78 |
| 46 | `O=C(O)C(F)(F)F.O=C(O)C(F)(F)F.O=C(O)C(F)(F)F.[H][C@]12C[C@@H](Cn3cccn3)N(C(C)C)[C@@]1([H])CCN(C1CCOCC1)C2` | -28.82 |
| 47 | `Cc1nn(C)c2ncnc(N3CCCC(C)(O)C3)c12` (configuration not stated) | 2.016 |
| 48 | `CCCc1nc(C(C)(C)NC(=O)C2CC(=O)N(CC(C)C)C2)no1` (configuration not stated) | -16 |
| 49 | `COc1ncccc1NC(=O)NCC1CCS(=O)(=O)C1` (configuration not stated) | 51.37 |
| 50 | `Cn1ccc2ccc(C(=O)N3CCC[C@H]3C(=O)N3CCOCC3)cc21` | -4.108 |
| 51 | `Cc1occc1C(=O)N1Cc2nccn2CC(CN2CCCC2)C1.O=C(O)C(F)(F)F` (configuration not stated) | -19.14 |
| 52 | `Cl.Cl.O[C@@H]1C[C@@](CNCC2CCCC2)(COc2cccnc2)C[C@@H]1O` | -6.845 |
| 53 | `O[C@H]1CC[C@@H](Cc2cc(-c3ccccn3)on2)O[C@@H]1CNCC1CC1` | 1.853 |
| 54 | `c1ccc2c(c1)CC(N1CCCN(Cc3cccc4nonc34)CC1)C2` | 30.2 |
| 55 | `CN(C)Cc1cnc(C2CCN(C(=O)c3cccc(Cl)c3)C2)[nH]1` (configuration not stated) | -19.59 |
| 56 | `Cn1cc(N2CCN(c3ccc(C#N)cc3F)CC2=O)cn1` | -49 |
| 57 | `CN(C)CCOc1ccc(CNC(=O)c2cccc(Cl)c2Cl)cc1` | -10.92 |
| 58 | `COc1cccc(C2SCC(=O)Nc3ccsc32)c1` (configuration not stated) | -15.57 |
| 59 | `O=C(c1cc(CC2(NCc3ccccc3)COC2)no1)N1CCCCC1` | -24.51 |
| 60 | `CCCc1ccc(C(=O)N2Cc3c(Cn4ccnc4)nn(C)c3C2)cc1.O=CO` | -19.72 |
| 61 | `COCCOC[C@]1(CNCc2ccc(F)cc2)C[C@@H](O)[C@@H](O)C1.Cl` | -50.86 |
| 62 | `Cc1noc2ncc(C(=O)N(CC3CCOC3)C3CC3)cc12` (configuration not stated) | -37.71 |
| 63 | `CCc1nnc(SCc2nonc2C)n1C` | -19.58 |
| 64 | `CCn1ncc2c1C(COC)N(C(=O)c1ccc3c(c1)OCO3)CC2.O=C(O)C(F)(F)F` (configuration not stated) | -39.78 |
| 65 | `O=C1NC2(CCN(C(=O)c3ccnnc3)CC2)CC1c1ccccc1` (configuration not stated) | -44.93 |
| 66 | `Cc1ccc(Nc2ncnc3c2CCN(CC2CCOC2)CC3)cc1.O=C(O)C(F)(F)F` (configuration not stated) | -12.39 |
| 67 | `CCCN1CCCC2(CCN(Cc3noc(C4CCCC4)n3)C2)C1=O` (configuration not stated) | -8.941 |
| 68 | `COc1ccc(OC)c(C2SCC(=O)Nc3n[nH]cc32)c1` (configuration not stated) | 38.65 |
| 69 | `Cc1cc(C)c(C(=O)N2CCCC(C(=O)CCc3ccccc3)C2)cn1` (configuration not stated) | -6.322 |
| 70 | `COc1ccc(Cl)cc1-n1nc(C2CCCC2)nc1Cn1cnnn1` | -3.608 |
| 71 | `COc1ccc2c(ccn2CCC(=O)NCCCC(=O)O)c1` | -0.7595 |
| 72 | `CN(Cc1nc(N2CCCC2)ncc1-c1ccncc1)C(=O)C(C)(C)C.Cl` | 34.69 |
| 73 | `CC(C)(C)c1cc(NC(=O)CN2CCCCC2Cn2cncn2)on1` (configuration not stated) | -18.07 |
| 74 | `O=C1C(Sc2nc(=O)ccn2C2CC2)CCN1c1ccccc1` (configuration not stated) | -1.226 |
| 75 | `Cc1nc(-c2ccc(S(=O)(=O)N3CCSC3)cc2)co1` | -38.16 |
| 76 | `CCCC(C#N)NC(=O)Cc1csc(CC)n1` (configuration not stated) | -35.16 |
| 77 | `CC(Nc1nc2c(cnn2C)c(=O)[nH]1)c1ccc2c(c1)CCCC2` (configuration not stated) | 35.38 |
| 78 | `Cn1nccc1NC(=O)CN1CCc2sccc2C1` | -18.02 |
| 79 | `CC(C)c1ccc(O)c(C(=O)NC2CCN(c3ncccn3)CC2)c1` | -3.316 |
| 80 | `COCC(=O)NC[C@@]1(COc2cccnc2)C[C@@H](O)[C@@H](O)C1.Cl` | -21.25 |
| 81 | `CN(Cc1nc(-c2ccccc2)c[nH]1)C(=O)NCC(=O)NC(C)(C)C` | -17.32 |
| 82 | `O=C(NCCc1ccc(Cl)cc1)c1coc(CN2CCOCC2)c1` | -21.7 |

4 of the entries, repeated:

Compound,effect
O=C(O)C(F)(F)F.O=C(c1cccc(F)c1)N1CCC2(CC1)CC(N1CCOCC1)C2,-35.6
O=C1OCCN1C1CCN(Cc2cc3n(n2)CCCNC3)CC1,-25.12
CC1CCN(C)c2ccccc2N1C(=O)c1ccn(C)c(=O)c1 (configuration not stated),-24.42
Cl.Cl.O[C@@H]1C[C@@](CNCC2CCCC2)(COc2cccnc2)C[C@@H]1O,-6.845

The values are deposited in ChEMBL (CHEMBL3988442, “University of Dundee, Small-Polar-MMV Screening Library” (2021)).